{"sequences": {"note": "Amino acid sequences for entries named in this document (tags omitted).", "UniProt Q06830": "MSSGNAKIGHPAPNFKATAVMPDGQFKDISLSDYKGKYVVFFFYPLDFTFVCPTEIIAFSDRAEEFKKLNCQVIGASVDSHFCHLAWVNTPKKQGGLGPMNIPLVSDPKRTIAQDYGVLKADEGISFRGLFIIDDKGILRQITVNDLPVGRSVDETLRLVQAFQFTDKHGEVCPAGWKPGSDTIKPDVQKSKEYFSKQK"}, "source": "paper PMC7748142", "binders": {"B1": {"name": "peroxiredoxin 1 (PRDX1), murine lung fibroblasts (enzyme, UniProt P35700 1-199)", "chain": "MSSGNAKIGYPAPNFKATAVMPDGQFKDISLSEYKGKYVVFFFYPLDFTFVCPTEIIAFSDRADEFKKLNCQVIGASVDSHFCHLAWINTPKKQGGLGPMNIPLISDPKRTIAQDYGVLKADEGISFRGLFIIDDKGILRQITINDLPVGRSVDEIIRLVQAFQFTDKHGEVCPAGWKPGSDTIKPDVNKSKEYFSKQK"}, "B2": {"name": "peroxiredoxin 3 (PRDX3), murine lung fibroblasts (enzyme, UniProt P20108 63-257)", "chain": "TPAVTQHAPYFKGTAVVNGEFKELSLDDFKGKYLVLFFYPLDFTFVCPTEIVAFSDKANEFHDVNCEVVAVSVDSHFSHLAWINTPRKNGGLGHMNITLLSDITKQISRDYGVLLESAGIALRGLFIIDPNGVVKHLSVNDLPVGRSVEETLRLVKAFQFVETHGEVCPANWTPESPTIKPSPTASKEYFEKVHQ"}, "B3": {"name": "peroxiredoxin 1 (PRDX1) (enzyme, UniProt Q06830 1-199)", "chain": "B1 chain with Y10H, E33D, D64E, I88V, I105V, I144V, I156T, I157L, N189Q"}, "B4": {"name": "peroxiredoxin 3 (PRDX3), A549 cells (enzyme, UniProt P30048 62-256)", "chain": "APAVTQHAPYFKGTAVVNGEFKDLSLDDFKGKYLVLFFYPLDFTFVCPTEIVAFSDKANEFHDVNCEVVAVSVDSHFSHLAWINTPRKNGGLGHMNIALLSDLTKQISRDYGVLLEGSGLALRGLFIIDPNGVIKHLSVNDLPVGRSVEETLRLVKAFQYVETHGEVCPANWTPDSPTIKPSPAASKEYFQKVNQ"}}, "test_in_all_cases": "condition: only reducing conditions (sample buffer with DTT); reducing SDS-PAGE with Western blot; same lysates as a4, boiled in sample buffer containing DTT (reducing conditions)", "key": {"[1]": {"target": "peroxiredoxin 1 (PRDX1), murine lung fibroblasts (mouse (endogenous in MLFs)) (UniProt P35700)"}, "[2]": {"target": "peroxiredoxin 3 (PRDX3), murine lung fibroblasts (mouse (endogenous in MLFs)) (UniProt P20108)"}, "[3]": {"target": "peroxiredoxin 1 (PRDX1) (human (endogenous in HEK 293T and A549)) (UniProt Q06830)"}, "[4]": {"target": "peroxiredoxin 3 (PRDX3), A549 cells (human (endogenous in A549)) (UniProt P30048)"}}, "note": "Where a chain is given by its changes, count along the chain named. No constants are given. Whether binding was seen depends on the method and setting."}
{"binder": "B1", "values": [{"measurement": "binding", "setting": "[1]", "result": "no binding"}]}
{"binder": "B2", "values": [{"measurement": "binding", "setting": "[2]", "result": "no binding"}]}
{"binder": "B3", "values": [{"measurement": "binding", "setting": "[3]", "result": "no binding"}]}
{"binder": "B4", "values": [{"measurement": "binding", "setting": "[4]", "result": "no binding"}]}
